Test results as given in EP3461842A1.
These are yes or no findings as the source states them, for the method shown. Some binding calls cover weakened binding; strength is not graded here. Sequences can lack the tags named with a protein.

What was measured:
[1] = target: T1, 1-27 CD3-EpCAM, tamarin 27 mer (Saguinus oedipus CD3 epsilon 1-27, Flag tag, cynomolgus EpCAM) (Saguinus oedipus; cynomolgus monkey); experiment: FACS, 293-HEK transfectant
T1 sequence: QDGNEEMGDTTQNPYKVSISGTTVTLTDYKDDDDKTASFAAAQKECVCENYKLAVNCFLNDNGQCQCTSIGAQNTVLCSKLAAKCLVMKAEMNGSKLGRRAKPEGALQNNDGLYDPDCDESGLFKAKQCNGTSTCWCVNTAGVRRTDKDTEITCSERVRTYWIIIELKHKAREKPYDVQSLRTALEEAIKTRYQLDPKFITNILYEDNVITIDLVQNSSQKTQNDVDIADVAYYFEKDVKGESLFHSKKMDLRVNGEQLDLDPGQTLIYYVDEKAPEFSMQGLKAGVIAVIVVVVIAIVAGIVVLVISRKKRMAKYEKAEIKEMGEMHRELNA

[2] = target: T2, 1-27 CD3-EpCAM, marmoset 27 mer (Callithrix jacchus CD3 epsilon 1-27, Flag tag, cynomolgus EpCAM) (Callithrix jacchus; cynomolgus monkey); experiment: FACS, 293-HEK transfectant
T2 sequence: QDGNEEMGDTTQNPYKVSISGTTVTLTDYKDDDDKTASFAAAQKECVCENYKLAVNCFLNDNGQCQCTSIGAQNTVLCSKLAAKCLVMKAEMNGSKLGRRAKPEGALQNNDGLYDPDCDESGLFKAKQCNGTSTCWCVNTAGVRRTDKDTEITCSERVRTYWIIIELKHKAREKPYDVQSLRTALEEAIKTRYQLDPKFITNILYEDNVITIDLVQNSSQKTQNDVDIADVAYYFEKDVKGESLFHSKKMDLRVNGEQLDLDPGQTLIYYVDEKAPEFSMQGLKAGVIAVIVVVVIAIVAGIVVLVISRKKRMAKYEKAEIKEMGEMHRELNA

B1: E2M HLP single-chain antibody (scFv)
scFv: EVQLLESGGGLVQPGGSLKLSCAASGFTFNGYAMNWVRQAPGKGLEWVARIRSKYNNYATYYADSVKERFTISRDDSKNTAYLQMNNLKTEDTAVYYCVRHRNFGNSYLSWFAYWGQGTLVTVSSGGGGSGGGGSGGGGSELVVTQEPSLTVSPGGTVTLTCRSSTGAVTSGYYPNWVQQKPGQAPRGLIGATDMRPSGTPARFSGSLLGGKAALTLSGVQPEDEAEYYCALWYSNRWVFGGGTKLTVL
[1]
  binding: binds
[2]
  binding: binds
